For at least one entry, the source does not settle the construct or the ends of the probe. For some of these results: No signal at the amounts used counts as a negative. For some of these results: At least one verdict rests on a figure or table, not on a statement of the authors. A weaker result is weaker than the reference pair of the same experiment.
Assays:
[1] = biological target: T1, GlcR (Paracoccus denitrificans DSM 413) (UniProt A1BAC0); assay: EMSA; conditions: glycolate 0.5-2 mM, 1,000x GlcR; EMSA: 20 mM K phosphate pH 7.0, 1 mM DTT, 5 mM MgCl2, 50 mM KCl, 15 ug/mL BSA, 50 ug/mL herring sperm DNA, 5% glycerol, 0.1% Tween20, DNA 0.025 pM, 37 C 20 min; recombinant protein; residues 1-269; protein details: N-terminal His (pET16b); label: 5' Dyomics 781 on reverse primer; probe letters rebuilt from the primers and the genome
T1 sequence: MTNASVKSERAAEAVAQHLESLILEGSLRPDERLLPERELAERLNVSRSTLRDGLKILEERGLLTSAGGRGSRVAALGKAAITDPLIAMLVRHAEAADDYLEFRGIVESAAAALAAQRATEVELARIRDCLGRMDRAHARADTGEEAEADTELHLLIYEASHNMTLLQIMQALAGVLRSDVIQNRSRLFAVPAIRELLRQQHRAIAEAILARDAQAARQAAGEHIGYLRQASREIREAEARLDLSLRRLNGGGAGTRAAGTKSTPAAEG

Protein sequences, listed by entry. Tags and fused reporters are not part of them. Lines headed by an entry give the natural chain unless they say otherwise; changes in a name come on top.
UniProt A1B8Z4: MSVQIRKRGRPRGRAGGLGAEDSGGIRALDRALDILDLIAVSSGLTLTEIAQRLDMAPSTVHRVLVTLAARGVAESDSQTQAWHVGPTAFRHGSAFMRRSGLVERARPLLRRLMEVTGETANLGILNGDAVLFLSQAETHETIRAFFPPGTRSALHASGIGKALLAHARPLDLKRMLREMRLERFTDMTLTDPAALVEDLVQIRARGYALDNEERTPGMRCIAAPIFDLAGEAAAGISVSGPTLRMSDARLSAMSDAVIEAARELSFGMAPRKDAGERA

[2] = biological target: T2, MGlcR (MBP-GlcR) (Paracoccus denitrificans DSM 413) (UniProt A1BAC0); assay: fluorescence polarization; conditions: FP: 50 mM HEPES pH 7.5, 100 mM NaCl, 0.01% Triton X-100, 10 nM DNA, room temperature 10 min, protein details: N-terminal His-MBP
T2 sequence: T1 sequence

[3] = biological target: BhcR (Paracoccus denitrificans DSM 413) (UniProt A1B8Z4); assay: EMSA; conditions: glyoxylate 0.1-5 mM, 40,000x BhcR, decreased, not abolished; EMSA: 20 mM K phosphate pH 7.0, 1 mM DTT, 5 mM MgCl2, 50 mM KCl, 15 ug/mL BSA, 50 ug/mL herring sperm DNA, 5% glycerol, 0.1% Tween20, DNA 0.025 pM, 37 C 20 min; recombinant protein; protein details: N-terminal His (pET16b); label: 5' Dyomics 781 on reverse primer; probe letters rebuilt from the primers and the genome

“CAAGCTCTCCTCCCTTGGTCGAACGGCAGGCCCGTGTCCTGCCCTGCATTCTTGGTATAATTTTCAGACCACATTAGTCAATCGGTATTTTTCTGGACCGACACGCCCGTCCTGTGCTTACATGGCAGGGATCCGACAACCGCATGAGCGCCCATG (double strand) [Pglc 156 bp]”: binds more weakly [1].

“GCTCTCCTCCCTTGGTCGAACGGCAGGCCCGTGTCCTGCCCTGCATTCTTGGTATAATTTTCAGACCACATTAGTCAATCGGTATTTTTCTGGACCGACACGCCCGTCCTGTGCTTACATGGCAGGGATCCGACAACCGCATGAGCGCCC (double strand) [[6FAM]-Pglc]”: binds more weakly ([2]; glycolate 0.1-100 mM, 750 nM MGlcR, recombinant protein, label: 5' 6FAM on S34 strand, probe letters rebuilt from the primers and the genome).

“GGAATGAAGATCGGGTTCTGGCTGGTCATGGCAATTCCTCCTGCGCTTGTGGACCAAGCTACGTTTTGCTGTCCATTGATGCAATTTTTCTGAAAAATATTTCGCAATCGCGGAAAAATGACCTAAAGTGTCGTGGAATCAGATCGTTGCTCTTTTCCAAAGCCAAAGAGTGATTTTCAACAAACTCAGAAAGTTGTCGAAAGGAAAAATTGAATGTCGGTTCAAATCCGCAAAAGGG (double strand) [Pbhc 238 bp]”: binds more weakly [3].

“TCCCTATCAGTGATAGAGA (double strand) [[6FAM]-tetO]”: no binding ([2]; 10 nM DNA, MGlcR up to 6 uM in dilution series, recombinant …, label: 5' 6FAM on S36).
